PubChem BioAssay AID1259254 | NCATS – 2017
The whole screen tested about 59,000 reagents; this is a random part of them. About 1,550 of them (2.6%) were called active. 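G2 share is only a proxy for re-replication; each gene was hit by three separate siRNAs, and active genes were retested.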 Reagents against one gene are numbered here. Not all columns of the deposit are shown. Not given: the amount of reagent.

- Screen: 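Finding genes that stop cells copying their DNA twice in one cycle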 (primary screen)
- Cell system: human HCT116 colorectal cancer cells
- Reagent: single siRNA against human genes
- Duration: 3 days
- Read-out: 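Imaged Hoechst DNA stain sorts each cell into a cycle phase by DNA amount; per plate, G2 fraction set to 0% for non-targeting and 100% for GMNN siRNA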
- Direction: G2 robust z-score: higher = more G2 cells, more excess DNA replication
- Hit rule: 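An siRNA counts as active if its G2 robust z-score lies at least 5 MADs above the screen median; here such calls match roughly 38% of GMNN control or more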

G2 robust z-score, by target gene and reagent
BDH2: #1 -0.0884 inactive; #2 -0.609 inactive; #3 -0.898 inactive
SSBP1: #1 -0.369 inactive; #2 -0.52 inactive; #3 -1.31 inactive
ASNSD1: #1 -0.0227 inactive; #2 -0.827 inactive; #3 0.832 inactive
LRRC10: #1 5.18 active; #2 -0.251 inactive; #3 -0.973 inactive
PZP: #1 1.17 inactive; #2 0.491 inactive; #3 -1.17 inactive
TSSK2: #1 -1.27 inactive; #2 -0.415 inactive; #3 -0.507 inactive
MAGI1: #1 -1.35 inactive; #2 -0.169 inactive; #3 3.22 inactive
KRT14: #1 -0.229 inactive; #2 -0.495 inactive; #3 -0.113 inactive
CFAP418: #1 -0.391 inactive; #2 -1.23 inactive; #3 -0.116 inactive
RELA: #1 3.83 inactive; #2 3.67 inactive; #3 0.544 inactive
ZBBX: #1 1.16 inactive; #2 1.54 inactive; #3 2.36 inactive
HLA-DRA: #1 -0.642 inactive; #2 3.27 inactive; #3 -0.664 inactive
PRELID3A: #1 0.985 inactive; #2 2.65 inactive; #3 -0.0415 inactive
SLIRP: #1 -1.35 inactive; #2 -0.602 inactive; #3 -0.144 inactive
CEP112: #1 -0.566 inactive; #2 0.517 inactive; #3 1.58 inactive
KLHL9: #1 -0.534 inactive; #2 -0.672 inactive; #3 0.00153 inactive
